# Primary screen of a compound library

Protein sequences, listed by entry. Tags and fused reporters are not part of them.
UniProt E9BF75, entry or part of it: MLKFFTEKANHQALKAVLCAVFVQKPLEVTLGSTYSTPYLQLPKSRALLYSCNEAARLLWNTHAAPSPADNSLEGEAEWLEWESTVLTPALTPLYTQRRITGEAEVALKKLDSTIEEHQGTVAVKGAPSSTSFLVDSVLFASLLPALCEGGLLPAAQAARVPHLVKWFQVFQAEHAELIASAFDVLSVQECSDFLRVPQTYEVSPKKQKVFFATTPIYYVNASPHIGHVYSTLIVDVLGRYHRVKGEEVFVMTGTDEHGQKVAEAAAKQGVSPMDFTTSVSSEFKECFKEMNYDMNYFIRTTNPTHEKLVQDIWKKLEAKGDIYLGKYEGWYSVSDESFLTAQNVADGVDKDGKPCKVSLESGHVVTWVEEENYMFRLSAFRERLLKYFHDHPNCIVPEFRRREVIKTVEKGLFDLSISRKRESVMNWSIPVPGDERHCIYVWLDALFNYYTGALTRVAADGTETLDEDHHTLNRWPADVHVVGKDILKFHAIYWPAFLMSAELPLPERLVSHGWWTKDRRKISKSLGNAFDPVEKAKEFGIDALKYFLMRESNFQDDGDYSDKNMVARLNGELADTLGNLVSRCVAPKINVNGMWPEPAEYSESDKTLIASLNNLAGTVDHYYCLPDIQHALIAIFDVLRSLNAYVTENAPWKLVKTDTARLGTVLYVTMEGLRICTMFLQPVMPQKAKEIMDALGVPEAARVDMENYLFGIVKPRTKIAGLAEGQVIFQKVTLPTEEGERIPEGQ

Measurements from “University of Dundee, Small-Polar-MMV Screening Library” (2021), ChEMBL document CHEMBL3988442.

All values are in %.
How 0% and 100% were set is not recorded. Most values in the screen are low, and negative values occur.
The compounds are a random part of those screened.
A dash means the value is not listed here; it may have been measured.

A: 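Primary screen of methionyl-tRNA synthetase; the read-out is not stated. Target: Methionyl-tRNA synthetase (putative), Leishmania donovani (UniProt E9BF75). The test concentration is not given. Values are per cent inhibition. Size under these conditions: about 68,000 compounds, about 24 of them at 50% or above in at least one test.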
B: 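Assay on Mycobacterium tuberculosis, filed only as a heat shock assay from Cornell; the read-out is not stated. The concentration is filed as 10 mM, unlikely as a test dose, so the dose is not known. Direction is inferred from retests: higher values go with stronger inhibition. About 69,000 compounds were tested under these conditions; 1.4% (about 930) showed 50% or more at least once.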

Compound	A	B
O=C(O)C(F)(F)F.O=C(O)C(F)(F)F.[H][C@]12C[C@H](CN(C)C(C)C)O[C@@]1([H])CN(Cc1ccco1)C2	-	-4.4%
CC(C)CN1C[C@H](COCc2ccccc2)Oc2ncccc2C1=O	3.014%	61.32%
COCC(=O)N(C)Cc1nc(N2CCCC2)ncc1-c1ccncc1.Cl	-	-16.19%
Cc1cc(C2CCCN2Cc2ccc(C(=O)Nc3nccs3)cc2)on1 (stereo not given)	6.162%	4.307%
CC1(C2CCN(CCCC(=O)O)CC2)CN(Cc2ccccc2)C(=O)O1 (stereo not given)	19.35%	-0.9941%
CCCC(=O)N(Cc1ccncc1)C(C)CC (stereo not given)	12.97%	-23.74%
CC(C)N1CCC(C(=O)N2CCc3c(nc(CC4CC4)[nH]c3=O)C2)CC1	11.02%	-3.122%
CCCn1cc(C(=O)N2CCCC2(C)c2nc(C)cc(N)n2)cn1 (stereo not given)	6.329%	15.28%
COc1ccc(CNC(C)c2ccc(Cl)cc2)c(OC)c1OC (stereo not given)	17.51%	-17.23%
CCc1ccc(CN2CCc3ncnc(N4CCOCC4)c3CC2)o1	7.266%	-
CC(C(=O)N1CCOCC1)N1CCc2cncnc2C1 (stereo not given)	8.871%	3.326%
CCC(C)n1cnc(S(=O)(=O)N(C)c2cccnc2N(C)C)c1 (stereo not given)	13.75%	-16.96%
O=C([C@@H]1C[C@@H]2CCN(Cc3ccccn3)C[C@H]2O1)N1CCCO1	10.64%	-
O=C(O)C(F)(F)F.O=C(O)C(F)(F)F.O=C(O)C(F)(F)F.[H][C@@]12CN(Cc3ccco3)CCC[C@]1(C(=O)OCC)CN(CCN(C)C)C2	-	-2.355%
CS(=O)(=O)N1C[C@@H](O)[C@H](N2CCN(c3ccccc3)CC2)C1	4.255%	-6.667%
CN1CCC2(CCCN(c3nccc(C(F)(F)F)n3)C2)CC1	7.778%	-
CC(C)(CNC(=O)C1(c2cccc(Br)c2)CCOCC1)C(=O)O	2.835%	5.305%
CC(C)c1nc(C2CCCN(C(=O)c3nccn4ccnc34)C2)no1 (stereo not given)	12.57%	-16.6%
Cc1cc(CN2CCCC(NS(C)(=O)=O)C2)ccc1-n1cncn1 (stereo not given)	7.971%	3.98%
CCc1cnc(N)nc1NCc1ccc(OC)cc1OC	10.8%	-28.22%
Cc1cccc(NC(=O)c2ccc(-n3cncn3)nn2)n1	7.194%	-1.174%
Cc1ccc(NC(=O)Cn2ccc3c(=O)n(C)ccc32)cc1F	5.634%	8.595%
[H][C@]12CN(c3cnccn3)C[C@@]1(C(=O)O)CN(C1CCOCC1)C2	-	2.884%
CCCc1noc(C2CC(=O)N(CCN(C)C)C2)n1 (stereo not given)	14.37%	-26.5%
CCOCC1CN(C)Cc2cnn(CC3CCCC3)c21 (stereo not given)	15.5%	-
O=C(O)C(F)(F)F.[H][C@@]12CN(Cc3sccc3C)C[C@@H](C(=O)NCCOC)[C@]1([H])CCO2	-	6.7%
CN(C)CCn1c(=O)n(C)c(=O)c2ccccc21	7.068%	-
O=C(c1ccncc1)N1CCc2[nH]nc(Nc3ccccc3)c2C1	9.688%	-8.227%
O=C(CCNc1ccccc1)NC1CCN(C(=O)C2CCCCC2)CC1	15.33%	-1.638%
O=C(O)C(F)(F)F.[H][C@]12CCN(S(=O)(=O)N(C)C)CC[C@@]1([H])S(=O)(=O)CCN2CC(C)C	-	-28.06%
Cc1cccc(CN2CCc3onc(Cn4cccc4)c3C2)n1	18.58%	-
CN1CCC(CO[C@H]2CN(C(=O)c3cccn3C)[C@@H]3COC[C@H]23)CC1	8.403%	-
CN(c1ccc(F)c(F)c1)S(=O)(=O)c1cc2c(c(C(=O)O)c1)OCCO2	15.47%	-0.7295%
NCCC(=O)N1CCC2(CC1)CN(C(=O)Cc1cccc(Cl)c1)CCO2	12.57%	-16.28%
CC1c2ncc(COCc3ccccn3)n2CCN1C1CCCC1.O=C(O)C(F)(F)F.O=C(O)C(F)(F)F (stereo not given)	-	-50.33%
CN1CC(=O)N(c2cccc(F)c2)CC12CCN(CC1CC1)C2 (stereo not given)	11.25%	-
CC(C)Oc1cccc(C(=O)C2CCCN(S(=O)(=O)C(C)C)C2)c1 (stereo not given)	1.567%	-26.34%
CC(C)N1CCOCC2(CN(Cc3ccccn3)CCO2)C1 (stereo not given)	16.67%	-
CSC(C)(C)CNC(=O)NCC[S+]([O-])c1ccccc1F (stereo not given)	9.749%	12.57%
CNC(=O)c1nc(CN2CCOC(C(F)(F)F)C2)no1 (stereo not given)	-4.032%	-12.25%
Cc1ccn(CC(=O)NCCCOc2ccccc2F)c(=O)c1	15.92%	3.577%
Cc1cnn(C2CN(c3nc(-c4ccncc4)nc4c3CCC4)C2)c1	18.82%	-17.33%
Cn1nc(C2CC2)cc1C(=O)N1CCC(c2nnsc2S(C)(=O)=O)CC1	1.553%	-4.156%
Cc1ncc2c(n1)CN(Cc1nnc(-c3occc3C)o1)CC2	23.17%	0.8411%
Cc1ccccc1CS(=O)(=O)CC(=O)N(C)Cc1ccccc1F	16.17%	3.989%
COCCN1C(=O)CC(c2cccnc2)C12CCN(C(=O)C1CC1)CC2 (stereo not given)	10.39%	-
CO[C@@H]1CC[C@H]2[C@H]1OCCN2Cc1ccc(F)c(F)c1	12.88%	-
CN(Cc1nccn1C)C1CCCN(CCCc2ccccc2)C1 (stereo not given)	9.365%	-2.961%
COc1cccc(COC(C)C(=O)NCc2nnc3n2CCC3)c1 (stereo not given)	7.796%	-35.94%
O=C(Nc1ccc(F)cc1)N1CCN(Cc2noc(C3CC3)n2)CC1	15.19%	-2.273%
Cc1cc(CNc2ccc(C(F)(F)F)cc2)no1	19.93%	-45.5%
CCc1cnc2c(c1Nc1ccc3c(c1)OCO3)c(=O)n(C)c(=O)n2C	10.7%	34.15%
CN1C(=O)CC(c2cnn(C)c2)C12CCN(C(=O)c1ccncc1)CC2.O=C(O)C(F)(F)F (stereo not given)	-	-21.56%
CN1CCC(CNC(=O)c2cccc(NC(N)=O)c2)c2ccccc21 (stereo not given)	7.246%	13.83%
CCn1ncc2c1CN(C(=O)c1cscn1)CC2COC.O=C(O)C(F)(F)F (stereo not given)	-	5.615%
FC(F)(F)Cn1ccnc1CNCCn1cccn1	15.62%	19.07%
CC(C)c1cc(N2CCC(NS(C)(=O)=O)CC2)n2nccc2n1	15.38%	21.1%
CCOCC1CN(Cc2cccc(C#N)c2)Cc2nccn2C1.O=C(O)C(F)(F)F (stereo not given)	-	-29.43%
Cc1cc(C)cc(C(=O)NCc2ncnn2C)c1	16.67%	-6.51%
O=C1CCC2(CCCN(c3ncc(F)cn3)CC2)N1CC1CC1 (stereo not given)	18.63%	-6.461%
Cn1cc(Cl)c(C(=O)N2CCc3nc4sccc4c(=O)n3CC2)n1	12.9%	17.75%
COc1ccc(OC)c(-n2cnnc2CN)c1	-	-12.9%
O=C(O)C(F)(F)F.O=C(O)C(F)(F)F.O=C(O)C(F)(F)F.[H][C@@]12CC(=O)N(Cc3ccncc3)[C@@]1([H])CCN2Cc1ccccn1	-	-5.386%
Cc1cc(C)n(CC2CCCN2Cc2cscn2)n1 (stereo not given)	6.529%	6.621%
COc1cccc(-n2c(SCC(=O)O)nnc2-c2cn[nH]c2)c1	-	-1.511%
CCCC(=O)NCC(=O)Nc1cc(F)ccc1SCC(F)F	13.35%	-2.399%
CC(NC(=O)C1=NN(C)C(=O)CC1)c1ccc(Cl)cc1 (stereo not given)	13.77%	13.76%
CCc1noc(C(C)N2CCN(Cc3cnc(C)cn3)CC2)n1 (stereo not given)	0.2793%	-15.9%
[H][C@@]12C[C@@H](O)CN1C[C@H](Cc1ccccc1)N(Cc1cnn(C=C)c1C)C2	-	-5.401%
CCc1cccc2cc(CNCCCN3CCOCC3)c(=O)[nH]c12	16.38%	-15.17%
CN1CCOC(CNCCOc2cccc(C#N)c2)C1 (stereo not given)	1.805%	-7.694%
O=S(=O)(Cc1ccccc1F)Cc1nnnn1C1CC1	13.28%	11.2%
Nc1nc(N)c2c(n1)OC1(CCN(C(=O)CC3CCCNC3)CC1)C2 (stereo not given)	14.33%	6.346%

For reference, 9 entries once more:

* Cc1ccccc1CS(=O)(=O)CC(=O)N(C)Cc1ccccc1F : A: 16.17%; B: 3.989%
* CNC(=O)c1nc(CN2CCOC(C(F)(F)F)C2)no1 (stereo not given) : A: -4.032%; B: -12.25%
* CC(C)N1CCOCC2(CN(Cc3ccccn3)CCO2)C1 (stereo not given) : A: 16.67%
* Cc1cc(CN2CCCC(NS(C)(=O)=O)C2)ccc1-n1cncn1 (stereo not given) : A: 7.971%; B: 3.98%
* CC1(C2CCN(CCCC(=O)O)CC2)CN(Cc2ccccc2)C(=O)O1 (stereo not given) : A: 19.35%; B: -0.9941%
* Cn1nc(C2CC2)cc1C(=O)N1CCC(c2nnsc2S(C)(=O)=O)CC1 : A: 1.553%; B: -4.156%
* CC(NC(=O)C1=NN(C)C(=O)CC1)c1ccc(Cl)cc1 (stereo not given) : A: 13.77%; B: 13.76%
* CCc1noc(C(C)N2CCN(Cc3cnc(C)cn3)CC2)n1 (stereo not given) : A: 0.2793%; B: -15.9%
* O=C(O)C(F)(F)F.O=C(O)C(F)(F)F.O=C(O)C(F)(F)F.[H][C@@]12CN(Cc3ccco3)CCC[C@]1(C(=O)OCC)CN(CCN(C)C)C2 : B: -2.355%